{
  "source": "paper PMC3406092",
  "target": "T1, MecI, repressor of mecA, from S. aureus strain N315 (Staphylococcus aureus (strain N315)) (UniProt P68262)",
  "T1 sequence": "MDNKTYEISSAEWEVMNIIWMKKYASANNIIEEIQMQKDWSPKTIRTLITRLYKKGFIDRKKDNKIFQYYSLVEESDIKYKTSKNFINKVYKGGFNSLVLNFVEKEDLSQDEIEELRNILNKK",
  "test": "two-hybrid; bacterial two-hybrid (restoration of CyaA from T25 and T18 fusions) in E. coli BTH101; lacZ reporter read by X-gal hydrolysis in liquid cultures; fusions at the N' or C' terminals in all combinations",
  "note": "These are yes or no findings as the source states them, for the method shown. Binding can be weak; no strength is given.",
  "data": [
    {"substance": "MecR2, small variant of prototype strain N315 (SCCmec type II) (Staphylococcus aureus (strain N315))", "values": [
      {"measurement": "binding", "result": "binds"}
    ]}
  ]
}
